Results on 2 molecules are retold here after publication PMC12179657.

The chains behind the UniProt entries cited, without tags or fusion partners.
UniProt P61290: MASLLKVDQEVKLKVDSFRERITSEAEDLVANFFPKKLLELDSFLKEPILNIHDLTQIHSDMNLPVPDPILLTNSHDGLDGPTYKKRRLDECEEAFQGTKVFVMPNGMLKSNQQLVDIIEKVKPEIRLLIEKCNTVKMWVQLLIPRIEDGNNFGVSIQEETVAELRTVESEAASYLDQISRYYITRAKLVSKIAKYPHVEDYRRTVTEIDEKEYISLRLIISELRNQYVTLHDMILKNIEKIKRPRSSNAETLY
UniProt O35685: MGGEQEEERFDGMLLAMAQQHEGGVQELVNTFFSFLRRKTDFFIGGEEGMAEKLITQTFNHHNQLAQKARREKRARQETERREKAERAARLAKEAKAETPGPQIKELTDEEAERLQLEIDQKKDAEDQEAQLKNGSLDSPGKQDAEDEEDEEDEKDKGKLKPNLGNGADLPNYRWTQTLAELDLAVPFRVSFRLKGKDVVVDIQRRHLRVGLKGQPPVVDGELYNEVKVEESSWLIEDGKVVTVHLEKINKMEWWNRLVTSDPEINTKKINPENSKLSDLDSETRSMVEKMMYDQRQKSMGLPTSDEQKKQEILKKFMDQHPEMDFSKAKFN

Assay [1] deals with proteasome activator complex subunit 3 (PSME3), endogenous (mouse (endogenous in C2C12)) (UniProt P61290). Put plainly: affinity purification with mass spectrometry; label-free quantitative mass spectrometry of the PSME3 coprecipitate from C2C12 cells, cycling and at Days 0 and 1 of differentiation; IgG control.
Assay [2] has the same target. The assay is described as above. The source holds these as a separate data set.

Where two headings read alike, the source gives them in different places. These are yes or no findings as the source states them, for the method shown. Binding seen in cells or lysates may run through a third protein. A yes stands for co-enrichment or nearness to the bait. Other partners may have been found.

On to “NUDC, endogenous (from UniProt O35685 1-332)”, for which the binding result in assay [1] is reported as “binds”.

B1: RPRD1A, endogenous (protein, UniProt Q8VDS4 1-312)
chain: MSAFSEAALEKKLSELSNSQQSVQTLSLWLIHHRKHSRPIVTVWERELRKAKPNRKLTFLYLANDVIQNSKRKGPEFTKDFAPVIVEAFKHVSSETDESCKKHLGRVLSIWEERSVYENDVLEQLKHALYGDKKARKRTYEQIKVDENENCSSLGSPSEPPQTLDLVRALQDLENAASGDAAVHQRIASLPVEVQEVSLLEKITDKESGERLSKMVEDACMLLADYNGRLAAEIDDRKQLTRMLADFLRCQKEALAEKEHKLEEYKRKLARVSLVRKELRARIQSLPDLSRLPNVTGSHMHLPFAGDIYSED
On to B1, for which the binding entry in assay [2] was “binds”.
